Laboratory results taken from US20260234655A1, “Nuclear Targeted DNA Delivery and Compositions for Use in Practicing the Same” (Seawolf Therapeutics, Inc., priority 2022, published 2026).
Some entries share one result that the patent states for a list of compounds.

Tested on: growth-arrested HepG2 cells
Assay: Number of TFBS repeats in the DTS (TetO, UAS), co-transfection with TetR or Gal4 mRNA in growth-arrested HepG2 cells; GFP intensity
Type: cell-based
Conditions: highest amount of RNA (17.5 ng RNA), 12 h
Experimental: Co-transfection of DNA and mRNA into HepG2 cells. HepG2 cells were purchased from ATCC and grown in complete media (EMEM+10% fetal bovine serum, ATCC). For co-transfection experiments, cells were seeded at confluence onto collagen coated 384-well plates and cultured for 48 hours in complete media followed by 48 hours in complete media supplemented with […] aphidicolin to prevent cell division. After the outgrowth period, cells were transfected using Lipofectamine3000 (Invitrogen) transfection reagent according to the manufacturer's instructions. RNA and DNA were independently complexed with Lipofectamine3000 in Opti-MEM I (Gibco) for 15 minutes. RNA and DNA complexes were then mixed, followed by 1:10 dilution into complete media supplemented with 0.75 μM aphidicolin. Media was aspirated from the plated HepG2 cells and replaced with the transfection mix. DNA was transfected from 17.5 ng to 4.38 ng per well. mRNA was transfected from 70 ng to 0.07 ng per well. Cells were live-imaged using a 4× objective with a GFP filter set and brightfield at 3-hour intervals for 72 hours using a Cytation5 automated microscope (Agilent) attached to a BioSpa8 automated incubator (Agilent). Gen5IPrime (Agilent) image analysis software was used to quantify the number of GFP cells and GFP Intensity per well.
In this study, DNAs were engineered to comprise DTSs having different numbers of TFBS repeats for TetR or Gal4, and the impact of multiple sequences assessed in vitro by co-transfection of mRNA encoding TetR or Gal4 NTF. Growth-arrested HepG2 cells were co-transfected with mRNA encoding the NTF protein along with DNA comprising a cognate DTS and a GFP expression cassette. […] Twenty-four hours after transfection, GFP expression was assessed by measuring GFP fluorescence intensity. […]
The Gal4 mRNA was paired with DNAs comprising DTSs with 1, 2, 3, 4, 5, 7, or 10 repeats of a Gal4 TFBS (e.g., UAS). Twelve hours after transfection, GFP expression was assessed by measuring GFP fluorescence intensity. […]

Row | Molecule | increase in GFP expression compared to DNA alone on co-transfection with Gal4 mRNA
1 | DTS with 5 repeats of UAS: DNA with GFP cassette and DTS of 5 UAS repeats (nucleic acid, DNA nuclear targeting sequence within DNA carrying a GFP cassette, further chemistry not given here, DNA with GFP cassette and DTS of 5 UAS repeats) DNA: CGGAGGACTGTCCTCCGTGAGTCCTAGCGGAGGACTGTCCTCCGTCTTCACAGGCGGAGGACTGTCCTCCGTAGGGTTCCTCGGAGGACTGTCCTCCGACACTAGAGTCGGAGGACTGTCCTCCG | greater than 10 fold
2 | DTS with 7 repeats of UAS: DNA with GFP cassette and DTS of 7 UAS repeats (nucleic acid) DNA: CGGAGGACTGTCCTCCGTGAGTCCTAGCGGAGGACTGTCCTCCGTCTTCACAGGCGGAGGACTGTCCTCCGTAGGGTTCCTCGGAGGACTGTCCTCCGACACTAGAGTCGGAGGACTGTCCTCCGGATAGTATCACGGAGGACTGTCCTCCGAGCAAACGAACGGAGGACTGTCCTCCG | greater than 10 fold
3 | DTS with 10 repeats of UAS: DNA with GFP cassette and DTS of 10 UAS repeats (nucleic acid) DNA: CGGAGGACTGTCCTCCGTGAGTCCTAGCGGAGGACTGTCCTCCGTCTTCACAGGCGGAGGACTGTCCTCCGTAGGGTTCCTCGGAGGACTGTCCTCCGACACTAGAGTCGGAGGACTGTCCTCCGGATAGTATCACGGAGGACTGTCCTCCGAATGGACTAACGGAGGACTGTCCTCCGAGCAAACGAACGGAGGACTGTCCTCCGTACACCGATCCGGAGGACTGTCCTCCGGCGCTCGGCACGGAGGACTGTCCTCCG | greater than 10 fold
